# Measured values: PubChem BioAssay AID493192 (National Center for Advancing Translational Sciences (NCATS), 2011)
# The inconclusive results got no clear call from the source; some entries with a clear call stand among them for comparison. Potencies of inconclusive entries are doubtful fits and often do not repeat. Active and inactive are the calls of the source. Calls come from the whole dose curve; as a rule, active = well fitted activation curve with a large enough effect; inconclusive = small, poorly fitted or top-dose-only effect; inactive = no such curve, though single readings can be large or run the other way.
# Assay: qHTS Assay for Identifying a Potential Treatment of Ataxia-Telangiectasia: Hit Validation;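 note: phospho-KAP1 level by AlphaLISA as a proxy for ATM-like kinase activity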
# Settings: Ataxia-telangiectasia cell-based hit validation qHTS, in ATM-null A-T patient fibroblasts; series mostly up to 76.9 µM
# Text: NIH Chemical Genomics Center [NCGC]
# NIH Molecular Libraries Probe Centers Network [MLPCN]
# Assay Submitter (PI): Wei Zheng and Yosef Shiloh
# Ataxia-telangiectasia (A-T) is a devastating and progressive disease for which, there is no cure. Although A-T is a multisystem disease, it is stereotyped characterized by its neurological symptoms such as truncal ataxia, due to cerebellar cortical degeneration of the Purkinje and granule cells. Other symptoms of A-T are telangiectasias (dilated blood vessels), primary immunodeficiency, marked sensitivity to ionizing radiation (IR), chromosomal instability and predisposition to cancer.
# The underlying genetic cause of A-T is null mutations in the ATM (A-T mutated) gene. ATM is a nuclear serine/threonine kinase that functions as a master regulator of the cellular responses to double strand breaks (DSBs) in the DNA. Upon activation by DSBs, ATM phosphorylates a plethora of downstream targets, including KAP-1 on […]. KAP-1 phosphorylation occurs shortly in response to DSBs and mediates global chromatin relaxation, which facilitates DSB repair. To screen for small molecules that will compensate for the loss of ATM in cells derived from A-T patients, we monitored KAP-1 phosphorylation as a readout for ATM-like activity using an AlphaLISA assay.
# Step,Parameter,Value,Description
# 1. Cell Plating, 3 ul, 500 cells/well in OPTI-MEM, 1% FBS, 1% Pen/Strep
# 3. Library compounds, 23 nl, 76.7 - 0.61uM dilution series final concentration
# 4. Incubation, 60 min, 37C, 5% CO2, 95% humidity
# 6. Incubation, 30 min, 37C, 5% CO2, 95% humidity
# 7. Reagent, 1 ul, Premixed detection reagents and lysis buffer
# 8. Reagent, 1 ul, 0.6% Antifoam A
# 9. Incubation, 6 hr, 25C, 95% humidity
# 10. Readout, EnVision, EnVision plate reader. AlphaScreen 1536-well protocol
# Cells were plated using medium-binding white solid-bottom tissue culture treated Kalypsys plates. Multidrop dispense of 3 uL of […] (hTERT immortalized A-T patient fibroblast cells). Detection reagent and lysis buffer was 3.75nM Rab-a-pKAP1 antibody bound to 75 ng/ul AlphaScreen SA donor bead, 3.75 nM Biot-M-a-KAP1 antibody bound to AlphaLISA protein A acceptor bead, 0.5x protease inhibitor cocktail and 0.25x PerkinElmer lysis buffer. EnVision protocol for 1536-well AlphaScreen read (30ms excitation, 100ms read), about 10 min/plate.
# Potency is the fitted concentration of half-maximal effect.
row,Structure (SMILES),Potency
1,COc1ccccc1N1CCN(C(=O)c2cc(=O)c3c(C)cc(C)cc3o2)CC1,inactive
2,CC(Oc1ccccc1)C(=O)Nc1cccc(NC(=O)c2ccco2)c1 (stereo not given),"inconclusive: 32.8 µM [activator, single point]"
3,COCCNC(=O)c1c(N)n(-c2cccc(C)c2)c2nc3ccccc3nc12,active: 41.2 µM
4,CCOC(=O)C1=C(C)N(c2ccc(OC)cc2)C(=O)/C1=C\c1ccc(O)c(OCC)c1,"inconclusive: 58.2 µM [activator, single point]"
5,Cc1nn(CC(=O)N(C)Cc2ccc(F)cc2)c(C)c1[N+](=O)[O-],inactive
6,CN(C)c1ccc2nc3ccc(=[N+](C)C)cc-3sc2c1,active: 14.6 µM
7,COc1ccc(C(=O)/C=C/C(=O)N(CC(=O)NC2CCCCC2)Cc2ccccc2)c(O)c1,active: 14.6 µM
8,CCOC(=O)N1CCN(C(=O)CCc2nc3sc4c(c3c(=O)[nH]2)CCCC4)CC1,"inconclusive: 36.8 µM [activator, single point]"
9,COc1cccc(/C=N/NC(=O)c2cc3cc([N+](=O)[O-])ccc3s2)c1O,active: 51.9 µM
10,COC(=O)CCc1c(C)c(C(=O)c2cc(OC)c(OC)c(OC)c2)c2ccccn12,"inconclusive: 11.6 µM [activator, full curve, poor fit]"
11,C=C1CCC[C@]2(C)C[C@H]3OC(=O)C(CN4CCCCC4CO)[C@H]3CC12 (stereo not given in full),"inconclusive: 5.82 µM [activator, partial curve, poor fit]"
12,COc1ccc(-c2nn(-c3ccccc3)cc2/C=C/C(=O)O)cc1[N+](=O)[O-],"inconclusive: 26 µM [activator, partial curve, poor fit]"
13,CCOc1cccc(-c2nnc(SCC(=O)Nc3cc(C)ccc3OC)n2N)c1,"inconclusive: 5.82 µM [activator, partial curve]"
14,Cc1oc2c(c(C)cc3oc(=O)c(CC(=O)NCC(=O)NCC(=O)O)c(C)c32)c1C,active: 32.8 µM
15,CCOC(=O)NC(C(Cl)(Cl)Cl)S(=O)(=O)c1ccccc1 (stereo not given),active: 41.2 µM
16,COc1ccccc1-n1c(SCC(N)=O)nc2sc3c(c2c1=O)CCC3,"inconclusive: 29.2 µM [activator, partial curve]"
17,COc1ccc(-c2cc(C(F)(F)F)c(C#N)c(SCC(=O)O)n2)cc1OC,inactive
18,O=S(=O)(C/C(=C/CO)S(=O)(=O)c1ccccc1)c1ccccc1,"inconclusive: 2.07 µM [activator, partial curve]"
19,Cc1cccc(NC(=O)/C(C#N)=C/c2ccc(F)cc2)n1,"inconclusive: 2.92 µM [activator, full curve, poor fit]"
20,CCCCC(=O)NC(c1ccco1)c1c(O)ccc2ccccc12 (stereo not given),"inconclusive: 8.23 µM [activator, partial curve]"

row,Structure (SMILES),Potency
1,CSc1nc2ccccc2nc1N(C)S(=O)(=O)c1ccc(C)cc1,active: 58.2 µM
2,CCCN1CN(c2ccccc2)C(=S)N(c2ccccc2)C1,inactive
3,O=C1C(Cl)=C(Nc2ccc3cn[nH]c3c2)C(=O)c2ccccc21,"inconclusive: 0.207 µM [activator, full curve]"
4,COc1ccc(CNC(=O)CN2C(=O)CSc3ccc(S(=O)(=O)N4CCOCC4)cc32)c(OC)c1,"inconclusive: 8.23 µM [activator, full curve, poor fit]"
5,COc1cccc(CN2CCN(Cc3cc(OC)c(OC)cc3OC)CC2)c1,"inconclusive: 32.8 µM [activator, single point]"
6,O=C(CCCC(=O)N1CCCC1)N1CCCC1,inactive
7,Clc1cccc(CN2CCC(Cc3ccccc3)CC2)c1,active: 13 µM
8,Cc1ccc(C(=O)c2c(C)oc3c2C(=O)C(=O)c2ccccc2-3)cc1,active: 26 µM
9,Cc1[nH]c2c(C)cccc2c1CN1CCC(CO)(Cc2ccccc2)CC1,active: 1.16 µM
10,CC1(C)CC2(CCO1)OC(=O)CC2C(=O)Nc1c(Cl)cccc1Cl (stereo not given),inactive
11,O=C1NC(NS(=O)(=O)c2ccc(Cl)cc2)(C(F)(F)F)C(=O)N1CCc1ccccc1 (stereo not given),inactive
12,CCOc1cccc(/C=C/c2ccc3cccc(O)c3n2)c1OC,active: 32.8 µM
13,CCn1c(=NC(=O)CN2C(=O)CCC2=O)sc2c(OC)ccc(OC)c21,"inconclusive: 58.2 µM [activator, single point]"
14,S=c1[nH]nc(C2CCCCC2)n1/N=C/c1ccc(Br)cc1,"inconclusive: 46.3 µM [activator, single point]"
15,CC(C)c1ccc(-c2cc(C(=O)N3CCOCC3)c3cc(Br)ccc3n2)cc1,inactive
16,CC(=O)c1ccc([N+](=O)[O-])c(CS(=O)(=O)c2ccc(Cl)cc2)c1,"inconclusive: 29.2 µM [activator, partial curve]"
17,O=C1C(Cl)=C(Nc2ccccc2)C(=O)c2ccccc21,active: 16.4 µM
18,Cc1ccc(NC(=O)NC(=O)N(C(C)C)S(C)(=O)=O)nc1,"inconclusive: 4.63 µM [activator, partial curve]"
19,CNC(=S)N/N=C/c1ccc2c(c1)OCCO2,"inconclusive: 46.3 µM [activator, single point]"
20,O=C(CNCc1cccs1)Nc1ccc(OC(F)(F)F)cc1,"inconclusive: 29.2 µM [activator, partial curve, poor fit]"

# Entries shown so far that have bromine (2):
row,Structure (SMILES),Potency
14,S=c1[nH]nc(C2CCCCC2)n1/N=C/c1ccc(Br)cc1,"inconclusive: 46.3 µM [activator, single point]"
15,CC(C)c1ccc(-c2cc(C(=O)N3CCOCC3)c3cc(Br)ccc3n2)cc1,inactive
